The values below are quoted from earlier work in publication PMC11223151 (ACS Omega, 2024).

The test system of the data set is human breast cancer cell line (MCF-7). The conditions noted are these: cited from earlier work.

For the compound `CC/C(=C(\c1ccccc1)c1ccc(OCCN(C)C)cc1)c1ccccc1` [tamoxifen], the “IC50 for MCF-7 cells” value is 8 µg/mL.
